# Values quoted from earlier work, collected in patent US11161828B2, “Class of bisquaternary ammonium compound as well as the preparative method and the use thereof” (WEST CHINA HOSPITAL, SICHUAN UNIVERSITY, priority 2018, dated 2021).
# Some entries share one result that the patent states for a list of compounds.
# Tested on: human body
# Settings: after single administration, clinical use; cited from earlier work
smiles,measurement,value
C=CC[N+]1([C@H]2C[C@H]3[C@@H]4CC[C@H]5C[C@H](O)[C@@H](N6CCOCC6)C[C@]5(C)[C@H]4CC[C@]3(C)[C@H]2OC(C)=O)CCCC1 [rocuronium],duration of muscle relaxation / action time,40 to 60 min
